# Test results: patent US10758513B2, “Modulators of mitochondrial protein import” (THE REGENTS OF THE UNIVERSITY OF CALIFORNIA, priority 2011, dated 2020)
# Chains of the proteins cited; added tags and fusions are not shown. Lines headed by an entry give the natural chain unless they say otherwise; changes in a name come on top.
# UniProt P55789: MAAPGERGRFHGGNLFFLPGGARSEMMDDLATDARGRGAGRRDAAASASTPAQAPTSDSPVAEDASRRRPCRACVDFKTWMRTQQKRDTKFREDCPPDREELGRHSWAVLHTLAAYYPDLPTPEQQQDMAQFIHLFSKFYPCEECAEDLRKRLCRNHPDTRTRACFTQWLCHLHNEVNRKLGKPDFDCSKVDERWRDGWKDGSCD
# For at least one compound, name, drawing or mass did not settle the structure.
# Tests used:
# HSF1 hESCs = test: Assays in human embryonic stem cells (HSF1); assay type: cell-based; conditions: 20 μM
# Protocol: Human embryonic stem cell (hESCs) line hSF1 was cultured in Stem Pro SFM (Gibco) supplemented with 10 ng/ml bFGF on Matrigel (BD Biosciences) coated plates under 5% CO2, 95% air. Differentiation involved culturing cells in Stem Pro SFM with 10 μM retinoic acid (Acros Organics) for 4 days. Cells were treated with the specific concentration of the compounds or 1% DMSO as a control. For the induction of apoptosis, cells were exposed to 20 μM actinomycin D (Sigma) with or without 100 μM z-VAD-FMK (MP Biomedical). Following treatment, cells were fixed with 3.7% formaldehyde for indirect immunofluorescence study or lysed with Triton buffer (25 mM Tris-HCl pH 7.5, 150 mM NaCl, 1% Triton X-100, 1 mM EDTA) for analysis by SDS-PAGE. Bright field images were acquired with Exi Blue (QImaging). Immunofluorescent images were acquired with a 63× oil immersion objective on an LSM 5 PASCAL Laser Scanning Microscope (Carl Zeiss). Antibodies against cyt c (BD Pharmingen), Tom20 (Santa Cruz), cleaved caspase-3 (Cell Signaling) and poly (ADP-ribose) polymerase (Cell Signaling) were purchased from the indicated vendors. Alkaline phosphatase activity staining was performed with the leukocyte alkaline phosphatase kit (Sigma) as per manufacturer's protocol. […]
# WT mitochondria [1] = test: Respiration of WT mitochondria with NADH (oxygen electrode); assay type: biochemical, yeast; conditions: 25 μM MitoBloCK-6; CCCP control
# Protocol: Oxygen consumption of WT mitochondria was measured using methods previously described (Claypool et al., 2008a). Briefly, purified WT mitochondria (25 mg/ml) were thawed on ice and tested within 2 hours. Oxygen consumption assays were performed with a Clark-type oxygen electrode in a stirred thermostatically controlled 1.5-ml chamber at 25° C. (Oxytherm, Hansatech). […] Consumption rate was monitored for approximately 2 min. […] Consumption rate was monitored for approximately 3 mins. MitoBloCK-6, SAR compounds, or DMSO was then added and respiration measured for another 3 mins. Uncoupled respiration was achieved as described above.
# HeLa cells [2] = test: Mitochondrial morphology in HeLa cells; assay type: cell-based; conditions: 50 μM 12-16 h, up to 100 μM, 20 μM CCCP control
# Protocol: (A) HeLa cells were transiently transfected with Su9-EGFP. Following transfection, cells were treated for 12 hr with 50 μM MitoBloCK-6 or control 1% DMSO. As a positive control, cells were incubated with 20 μM CCCP to dissipate the membrane potential. Mitochondria were also stained with 10 μM MitoTracker Red. Mitochondrial morphology was assessed by fluorescence microscopy and the Mitotracker Red and GFP channels were superimposed (Merge). (B) The effect of MitoBloCK-6 on the viability of HeLa cells was assessed with a MTT-based toxicology assay. Cultured cells were treated for 12-16 hr with DMSO or 50 μM and 100 μM MitoBloCK-6. Bars display mean cell viability where 100% was defined as signal from untreated samples. Error bars display standard error of the mean (n=5). (C) The release of cyt c was investigated. Cells were treated with 1% DMSO or 50 μM MitoBloCK-6 for 12-16 hr and fractionated into mitochondrial (M) and cytosolic (C) fractions. Release of mitochondrial proteins was assessed by immunoblot analysis with antibodies against cyt c, Complex V (ATP synthase subunit alpha), pyruvate dehydrogenase (PDH), and cytosolic GAPDH. Treatment with 1 μM staurosporine for 4 hr induced apoptosis and was included as a positive control.
# For microscopy experiments, HeLa or HEK293 cells were transiently transfected with Su9-EGFP (Lipofectamine, Invitrogen) at 80% confluency. […]
# Erv1 [3] = biological target: T1, Erv1 (Saccharomyces cerevisiae, UniProt P27882); test: Reconstitution of substrate oxidation with Mia40 and Erv1; assay type: biochemical, yeast; conditions: Amplex Red-HRP
# T1 construct: made in house
# T1 sequence (P27882 1-189): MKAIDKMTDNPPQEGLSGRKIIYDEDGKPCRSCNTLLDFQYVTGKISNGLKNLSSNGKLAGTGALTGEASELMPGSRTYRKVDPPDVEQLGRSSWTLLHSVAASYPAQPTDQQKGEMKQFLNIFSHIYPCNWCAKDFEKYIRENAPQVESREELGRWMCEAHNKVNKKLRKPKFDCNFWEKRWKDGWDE
# Protocol: (A) Mitochondria from a strain expressing C-terminal histidine-tagged Erv1 were incubated with 50 μM MitoBloCK-6 or 1% DMSO for 30 min at 25° C. followed by solubilization in 1% digitonin buffer. As a control, 100 μg of extract was withdrawn (T), and 500 μg lysate was incubated with Ni+^2-agarose beads. The beads were washed and bound proteins (B) were eluted with SDS-PAGE sample buffer. To test effectiveness of binding, 100 μg of the unbound protein fraction (S) was also included. Proteins were analyzed by immunoblotting with polyclonal antibodies against Mia40, Erv1, and cyt c. […] Oxidized and reduced Tim13 were detected by non-reducing SDS-PAGE and immunoblotting with antibodies against Tim13.
# Reconstitution studies with reduced Tim13 were performed as described previously (Tienson et al., 2009). […] H2O2 levels in the reconstitution assays were measured using the Amplex Red Hydrogen Peroxide/Peroxidase Assay kit according to the manufacturer's protocol (Dabir et al., 2007) (Invitrogen). […] The Erv1 or ALR-catalyzed reduction of 02 to H2O2 was measured by a FlexStation plate reader (Molecular Devices) controlled via the SoftMax Pro software package (Molecular Devices) for data acquisition. […]
# Erv1 [4] = biological target: T1, Erv1; test: Oxygen consumption by Erv1 oxidizing DTT (oxygen electrode); assay type: biochemical, yeast; conditions: excess DTT
# Amplex Red-HRP = test: Counter screen: direct inhibition of Amplex Red-HRP reaction with H2O2; assay type: biochemical; conditions: 2, 5, 10 μM; 800 nM H2O2
# [5] = system: HSF1 cells differentiated with retinoic acid; test: Retinoic acid differentiated HSF1 cells; assay type: cell-based, human; conditions: 10 μM retinoic acid, then MitoBloCK-6
# zebrafish embryos = test: Zebrafish embryo development; assay type: in vivo
# Protocol: Zebrafish used for o-dianisidine staining of red blood cells in DMSO and MitoBloCK-6 treated fish were albino lines generated from crosses of TL and TU fish. Line AB were injected with the ALR morpholino. Lines were maintained in a 14-hr light/10-hr dark cycle and mated for one hour to obtain synchronized embryonic development. […] Following treatment, embryos were imaged using a Leica MZ16F fluorescent stereoscope (TexasRed filter set) at 5× magnification. […] Embryos were allowed to mature to 2 dpf and then imaged like the MitoBloCK-6 treated embryos; embryos were imaged at day 2 because of concerns with morpholino dilution. Images were resized to 300 dpi without resampling using Adobe Photoshop software.
# WT mitochondria [6] = test: Release of proteins from WT mitochondria (membrane integrity); assay type: biochemical, yeast; conditions: 25 or 50 μM, 30 min
# WT mitochondria [7] = test: Import of radiolabeled precursors into WT yeast mitochondria (MitoBloCK-6); assay type: biochemical
# HeLa cells [8] = test: Cyt c release assay by cell fractionation in HeLa cells; assay type: cell-based; conditions: 50 μM MitoBloCK-6 12-16 h, 1 μM staurosporine 4 h
# Protocol: For cyt c release assays, a cell fractionation kit (MitoSciences) was used. Briefly, HeLa or HEK293 cells were grown in 10 cm^2 dishes to 80% confluency and then cells were treated with DMSO or MitoBloCK-6 in complete medium for 12-16 h. […] Cells were fractionated to obtain cytosolic and mitochondrial fractions; 100 μg of each fraction was analyzed by SDS-PAGE. Blots were probed with ApoTrack cyt c apoptosis antibody cocktail (MitoSciences).
# ALR = biological target: T2, ALR (Homo sapiens, UniProt P55789); test: Reconstitution of Cmc1 oxidation with Mia40 and ALR; assay type: biochemical, mammalian; conditions: Amplex Red-HRP
# T2 construct: Recombinant long form ALR, residues 1 to 205, was purified under native conditions; made in house
# [9] = system: HEK293, HeLa and COS7 cells; test: Growth or function of differentiated cells; assay type: cell-based; conditions: several types of media
# [10] = system: protein disulfide isomerase (PDI); test: PDI-mediated insulin reduction; assay type: biochemical
# [11] = 20 to 50 MitoBloCK-6, vs 1% DMSO
structure (smiles),measurement,setting,value
Oc1c(Cl)cc(Cl)cc1/C=N/c1ccc(Nc2ccccc2)cc1 [MitoBloCK-6],PARP and caspase-3 cleavage,HSF1 hESCs,detected
same,cyt c localization,HSF1 hESCs,shift in cyt c localization from mitochondria
same,oxygen consumption rate (NADH respiration),WT mitochondria [1],did not alter the oxygen consumption rate
same,mitochondrial network / morphology,HeLa cells [2],did not disrupt the mitochondrial network
same,H2O2 production during Cmc1 oxidation with Erv1,Erv1 [3],dose-dependent decrease in H2O2 production
same,H2O2 production during Tim13 oxidation,Erv1 [3]; 30 min,significant decrease in H2O2 production
same,oxygen consumption rate by Erv1,Erv1 [4],concentration-dependent decrease in the oxygen consumption rate
same,direct effect on Amplex Red-HRP reaction,Amplex Red-HRP,does not directly hinder the Amplex Red-HRP reaction
same,survival of differentiated HSF1 cells,[5],cells did not die
same,embryo morphology,"zebrafish embryos; 2.5 μM, 3 hpf to 72 hpf",ventral curvature of the body and cardiac edema
same,erythrocytes (o-dianisidine staining),"zebrafish embryos; 2.5 μM, 72 hpf",erythrocyte pooling along the yolk sac prior to entering the lower chamber of the heart and an absence of red blood cells in the tail
same,cardiac development,"zebrafish embryos; 2.5 μM, cmlc2 DsRed line",hearts failed to loop by day 2
same,reversibility of effects,"zebrafish embryos; treated 3 to 24 hpf, removal, observed at 72 hpf",reversible
same,mitochondrial membrane integrity (Coomassie staining),WT mitochondria [6],did not alter mitochondrial membrane integrity
same,"release of marker proteins aconitase, AAC, Tim54, Mia40, Ccp1, cyt c (immunoblot)",WT mitochondria [6],not released
same,import of AAC decreased by,WT mitochondria [7]; 20 μM,approximately 50%
same,import of Tim23 decreased by,WT mitochondria [7]; 20 μM,approximately 50%
same,AAC assembly state on BN gel,WT mitochondria [7]; 25 μM,AAC accumulation in a 500 kDa complex with the TOM complex
same,"import of TIM23 substrates (Su9-DHFR, cyt b2-DHFR, Hsp60)",WT mitochondria [7]; 50 μM,not impaired
same,import of Erv1,WT mitochondria [7]; [11],strongly decreased
same,"import of twin CX9C proteins (Mia40, Cmc1, Cox19, Cox17)",WT mitochondria [7]; [11],strongly decreased
same,concentration required to inhibit import of AAC,WT mitochondria [7]; WT mitochondria,15 µM
same,concentration required to inhibit import of Cmc1,WT mitochondria [7]; WT mitochondria,10 µM
same,concentration required to inhibit import of Mia40,WT mitochondria [7]; WT mitochondria,10 µM
same,import of Tim8 impaired by,WT mitochondria [7]; vs 1% DMSO,40%
same,cyt c release,HeLa cells [8],failed to initiate cyt c release
same,H2O2 production during Cmc1 oxidation with ALR,ALR,dose-dependent decrease in H2O2 production
same,growth or function of differentiated cells,[9],did not inhibit growth or function
same,PDI reduction of insulin,[10],did not inhibit the ability of PDI to reduce insulin
